Test results as given in PubChem BioAssay AID1671190 (National Center for Advancing Translational Sciences (NCATS), 2021).
Where “and” joins values, the source holds several entries; their conditions need not be identical. Identical values can stand only once. About 6,100 (1.1%) of roughly 580,000 compounds were called active. Inconclusive results, whose numbers are uncertain, are shown with a selection of clear calls. Calls follow the shape of the dose curve; as a rule, active = well fitted inhibition curve with a large enough effect; inconclusive = small, poorly fitted or top-dose-only effect, or another doubt; inactive = no such curve, though single readings can be large or run the other way. A potency beside an inconclusive call is a rough fit, not a confirmed value.

Protein sequences, listed by entry. Tags and fused reporters are not part of them.
UniProt P18054, whole entry, looked up: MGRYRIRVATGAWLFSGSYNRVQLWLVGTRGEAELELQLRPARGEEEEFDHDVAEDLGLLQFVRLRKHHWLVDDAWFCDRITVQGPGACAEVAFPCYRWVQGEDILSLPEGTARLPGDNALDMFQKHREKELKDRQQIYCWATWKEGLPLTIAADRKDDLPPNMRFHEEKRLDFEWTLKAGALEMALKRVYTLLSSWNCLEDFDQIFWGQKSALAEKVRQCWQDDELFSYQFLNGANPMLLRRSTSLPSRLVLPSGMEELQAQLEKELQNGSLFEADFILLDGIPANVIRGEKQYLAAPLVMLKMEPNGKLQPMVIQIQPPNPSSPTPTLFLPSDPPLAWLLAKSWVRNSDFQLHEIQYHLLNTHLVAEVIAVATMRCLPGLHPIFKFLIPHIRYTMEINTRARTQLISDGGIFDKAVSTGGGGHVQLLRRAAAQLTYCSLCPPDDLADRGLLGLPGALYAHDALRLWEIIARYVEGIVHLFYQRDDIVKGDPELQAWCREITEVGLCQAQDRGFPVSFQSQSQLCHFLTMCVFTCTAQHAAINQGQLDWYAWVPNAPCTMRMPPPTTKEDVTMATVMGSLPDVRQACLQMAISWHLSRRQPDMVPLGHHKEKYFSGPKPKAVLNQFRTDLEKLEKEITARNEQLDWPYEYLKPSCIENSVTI

Target: Polyunsaturated fatty acid lipoxygenase ALOX12 (Homo sapiens) (UniProt P18054)
Test: Primary qHTS assay for inhibitors of human arachidonate 12S-lipoxygenase (ALOX12): Round 2
Conditions: purified 12hLO, xylenol orange hydroperoxide absorbance; series mostly up to 108 µM
How it was run: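 Hydroperoxide product was detected by ferrous iron/xylenol orange as the 573 to 405 nm absorbance ratio. Arachidonic acid at 40 uM (final) was turned over for 30 min at room temperature by 150 nM human 12hLO, pH 7.0 Hepes buffer, after 15 min compound preincubation.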
Potency is read from the fitted curve at half-maximal effect.

Row | Compound | Potency
1 | CC(NC(=O)C[n+]1cccc(Br)c1)c1ccccc1 (configuration not stated) | inconclusive: 39.8 µM [inhibitor, partial curve, poor fit]
2 | COc1cccc(CC(=O)NCC2Cn3cccc3C(=O)N2C)c1 (configuration not stated) | inactive
3 | COc1ccccc1N1CCN(C2CCN(C(=O)c3cccs3)CC2)CC1 | inconclusive: 22.4 µM [inhibitor, partial curve, poor fit]
4 | CC(OC(=O)c1cccc(S(=O)(=O)N2CCCC2)c1)C(=O)c1ccccc1 (configuration not stated) | inconclusive: 35.5 µM [inhibitor, partial curve]
5 | COC(=O)C(C)Sc1nnc(CSc2ncccn2)n1-c1ccc(Cl)cc1 (configuration not stated) | inactive
6 | COc1ccc(C(=O)N2CCC3(CC2)NC(=O)N(c2ccccc2Cl)N3)cc1F | active: 1.26 µM
7 | CCc1nnc(NS(=O)(=O)c2ccc(N/C=C\C(=O)c3ccc(F)cc3)cc2)s1 | inactive
8 | CSC(=NC#N)N1CCN(C(c2ccccc2)c2ccccc2)CC1 | inconclusive: 50.1 µM [inhibitor, partial curve, poor fit]
9 | Cc1sc2ncnc(N3CCC(C(=O)Oc4cccc(Cl)c4Cl)CC3)c2c1C | inactive
10 | COc1ccc(CNC(=O)C(C#N)c2nc3ccccc3nc2N2CCCC2)cc1 (configuration not stated) | inactive
11 | CNC(=O)CCC[C@@H]1[C@H]2CCCN3CCC[C@@H](CN1C(=O)C1CCCCC1)[C@@H]23 | inactive
12 | O=C(Nc1ccccc1SC(=O)c1ccccc1)c1ccccc1 | active: 5.62 µM
13 | COc1ccc(-c2cccc(NS(=O)(=O)c3cccc([N+](=O)[O-])c3)c2)nn1 | inconclusive: 100 µM [inhibitor, partial curve, poor fit]
14 | C#CCN(Cc1ccco1)C(=O)c1nnc2c3ccccc3n(S(=O)(=O)c3ccc(C)cc3)c2n1 | inconclusive: 44.7 µM [inhibitor, partial curve]
15 | Cc1cncc(C(=O)N2C[C@H]3OC(=O)N(CCc4cccc(Cl)c4)[C@H]3C2)c1 | inactive
16 | COc1cccc2c1C(=O)c1c(O)c3c(c(O)c1C2=O)C[C@@](O)(C(=O)CO)C[C@@H]3OC1CC(N)C(O)C(C)O1 (some centres not stated) | inconclusive: 39.8 µM [inhibitor, partial curve, poor fit]
17 | O=C(O)C(c1ccccc1)N1C(=O)/C(=C\c2ccc(-c3ccc(Br)cc3)o2)SC1=S (configuration not stated) | active: 6.31 µM
18 | O=C(O)COc1ccccc1C=NNc1ccc([N+](=O)[O-])cc1S(=O)(=O)Nc1ccc(Cl)cc1 | active: 35.5 µM
19 | COc1ccccc1C(=O)NNC(=S)NC(=O)c1cc(OC)c(OC)c(OC)c1 | active: 39.8 µM
20 | Cc1ccc(CSCC(=O)N2CCN(c3ccc(F)cc3)CC2)cc1 | inactive and inconclusive: 50.1 µM [inhibitor, partial curve, poor fit]
21 | O=S(=O)(Cc1ccccc1)CC1CC1(Cl)Cl (configuration not stated) | inactive
22 | Cc1ccc(-c2nn(-c3ccccc3)cc2/C=N/O)cc1 | inactive
23 | Cc1ccc(NC(=O)Cc2nc(-c3c[nH]c(C(=O)N4CCCC4)c3)cs2)cc1 | inconclusive: 15.8 µM [inhibitor, partial curve, poor fit]

Row | Compound | Potency
24 | Clc1ccc(CNCCOc2ccccn2)cc1 | inconclusive: 50.1 µM [inhibitor, partial curve, poor fit]
25 | COc1ccc(NC(=O)C(C)N(c2ccc(C)cc2)S(C)(=O)=O)c(OC)c1 (configuration not stated) | inconclusive: 25.1 µM [inhibitor, single point]
26 | Fc1ccc(CNCCOc2ccccn2)cc1 | inconclusive: 0.631 µM [inhibitor, full curve, poor fit]
27 | Cc1ccc2c(=O)cc(CSc3ccccc3)[nH]c2c1C | inactive
28 | CCOC(=O)[C@]12CCC=C1N(Cc1cccc3ccccc13)C(=O)[C@H](CC(=O)N1CCN(C(=O)c3ccco3)CC1)C2 | inconclusive: 25.1 µM [inhibitor, partial curve, poor fit]
29 | O=[N+]([O-])c1ccc(N2CCN(C(=S)Nc3ccc(F)cc3F)CC2)cc1 | inactive
30 | CC(C)c1ccc(C(=O)N2CCCC(c3cc(C(=O)NCc4ccccc4)no3)C2)cc1 (configuration not stated) | inactive
31 | c1ccc2c(Nc3ccc4[nH]ncc4c3)ncnc2c1 | inactive
32 | CC(=O)c1cccc(S(=O)(=O)NCCc2csc3nc(-c4ccc(F)cc4)nn23)c1 | inconclusive: 56.2 µM [inhibitor, partial curve, poor fit]
33 | Cc1cccc(N(CC(=O)Nc2ccc(Br)cc2)S(C)(=O)=O)c1C | inconclusive: 56.2 µM [inhibitor, partial curve, poor fit]
34 | O=C(O)c1cc(-c2ccco2)nc2cc3ccccc3cc12 | active: 20 µM
35 | CC(C)C(NC(=O)c1ccc(S(=O)(=O)N(C)C)cc1)c1ccc2c(c1)OCCO2 (configuration not stated) | inconclusive: 35.5 µM [inhibitor, partial curve, poor fit]
36 | COc1ccc(NC(=O)O[C@@H]2CO[C@H]3[C@@H]2OC[C@@H]3NS(=O)(=O)Cc2ccccc2)cc1 | inconclusive: 89.1 µM [inhibitor, partial curve, poor fit]
37 | CN(CP(=O)(O)CCc1ccccc1)S(C)(=O)=O | inconclusive: 39.8 µM [inhibitor, partial curve, poor fit]
38 | O=C(Nc1cccc(C(F)(F)F)c1)C1C2C3CCC(C3)C12 (configuration not stated) | inactive
39 | CC1CCN(S(=O)(=O)NC(C)Cc2ccco2)CC1 (configuration not stated) | inactive
40 | Cc1cccc(C(=O)Nc2nnc(C3CC(=O)N(c4cc(C)cc(C)c4)C3)s2)c1 (configuration not stated) | inconclusive: 44.7 µM [inhibitor, partial curve, poor fit]
41 | COc1ccc(OC)c(NC(=O)c2c(NCc3ccc(C)o3)sc3c2CCC(C)C3)c1 (configuration not stated) | inconclusive: 31.6 µM [inhibitor, full curve, poor fit]
42 | O=C(Nc1ccc(OC(F)F)cc1)Nc1cccc(C(F)(F)F)c1 | inactive
43 | CN(C)c1ccc(Nc2nc(-c3cc4ccccc4oc3=O)cs2)cc1 | inconclusive: 44.7 µM [inhibitor, single point]
44 | CCN(CC)C(CNS(=O)(=O)c1ccc(C#N)cc1)c1ccsc1 (configuration not stated) | inconclusive: 1.78 µM [inhibitor, full curve, poor fit]
45 | CCCCCCNC(=O)c1cn(CC)c2cc(N3CCN(C)CC3)c(F)cc2c1=O | inconclusive: 44.7 µM [inhibitor, partial curve, poor fit]
46 | COc1ccc2c(c1)-c1nc(NC(=O)c3cc(Cl)ccc3OC)sc1CC2 | inactive

Row | Compound | Potency
47 | Fc1ccc(-c2nnc(NC3=NCCCCC3)o2)cc1 | inactive
48 | CCCCc1nc2sc3c(NCC(C)O)ncnc3c2c2c1CCC2 (configuration not stated) | inconclusive: 79.4 µM [inhibitor, single point]
49 | Cc1ccc(CN2CCCn3nc(C(=O)NCCc4ccc(Cl)cc4)cc3C2=O)cc1 | inconclusive: 126 µM [inhibitor, partial curve, poor fit]
50 | CCCCCn1cnc2c(=S)nc(N)[nH]c21 | inconclusive: 4.47 µM [inhibitor, full curve, poor fit]
51 | COc1cc(/C=C(/C#N)C(=O)NC(C)c2ccccc2)cc(OC)c1O (configuration not stated) | inconclusive: 50.1 µM [inhibitor, partial curve, poor fit]
52 | O=C(Nc1ccc(N2CCOCC2)cc1)c1ccc([N+](=O)[O-])cc1 | inconclusive: 39.8 µM [inhibitor, partial curve, poor fit]
53 | O=S(=O)(CCNCc1cccs1)c1ccc(Cl)cc1 | inconclusive: 1.58 µM [inhibitor, full curve, poor fit]
54 | COc1ccc(SC[C@H](Cc2ccccc2)N2CC[C@@H](NC(=O)OCc3ccccc3)CCC2=O)cc1 | inconclusive: 50.1 µM [inhibitor, partial curve, poor fit]
55 | CNC(=O)[C@@H]1CN(C(=O)c2ccc(F)cc2F)C[C@H]1COC | inactive
56 | CCN1/C(=C/c2ccc3cccc(C)c3[n+]2CC)Sc2ccccc21 | active: 7.94 µM
57 | CCOC(=O)C1C(=O)CC(=O)C(C(=O)OCC)C1c1ccc(O)cc1 (configuration not stated) | inconclusive: 20 µM [inhibitor, partial curve, poor fit]
58 | CCOC(=O)CCCCC(=O)c1[nH]c(=O)[nH]c1CSc1nc(-c2ccccc2)c(C#N)c(=O)[nH]1 | inconclusive: 7.94 µM [inhibitor, full curve]
59 | CN1c2ccccc2-c2nc(SCC(=O)Nc3ccccc3C(F)(F)F)ncc2S1(=O)=O | inconclusive: 79.4 µM [inhibitor, partial curve, poor fit]
60 | CCOc1ccc2nc(C)cc(Nc3ccc(C(=O)OC)cc3)c2c1 | inconclusive: 44.7 µM [inhibitor, partial curve, poor fit]
61 | CN1CCC(N(C)S(=O)(=O)c2ccc(NC(=O)COc3ccc(F)cc3Cl)cc2)CC1 | inconclusive: 70.8 µM [inhibitor, partial curve, poor fit]
62 | N#CCC(=O)Nc1ccc(C(=O)OCc2ccc(Cl)c(Cl)c2)cc1 | inconclusive: 31.6 µM [inhibitor, full curve, poor fit]
63 | Cc1cc(C)n2nc(C(=O)N3CCN4C(=O)CN(C)C(=O)C4C3)cc2n1 (configuration not stated) | inactive
64 | CCOC(=O)c1cc(-c2ccccc2)sc1NC(=O)c1ccc(OC)c(OC)c1 | active: 11.2 µM
65 | COc1cccc(CNC(=O)CCS(=O)(=O)c2cccc3nonc23)c1 | inactive
66 | CCNC(=S)N/N=C/c1cn(Cc2ccccc2F)c2ccccc12 | active: 39.8 µM
67 | S=c1[nH]nc(-c2ccccc2)n1/N=C/c1ccc(-c2ccccc2Cl)o1 | inconclusive: 14.1 µM [inhibitor, partial curve, poor fit]
